No constants are given. Whether binding was seen depends on the method and setting.
How the values were obtained:
[1] = target: T1, human BTN3A1, isoform 1, on cells (human, UniProt O00481 30-513); test: flow cytometry, anti-BTN2A1 259 versus anti-BTN3A 103.2 on transfected NIH-3T3 cells
T1 construct: whole, on cells

Protein sequences, listed by entry. Tags and fused reporters are not part of them. Residues count along the entry.
UniProt O00481, residues 30-513: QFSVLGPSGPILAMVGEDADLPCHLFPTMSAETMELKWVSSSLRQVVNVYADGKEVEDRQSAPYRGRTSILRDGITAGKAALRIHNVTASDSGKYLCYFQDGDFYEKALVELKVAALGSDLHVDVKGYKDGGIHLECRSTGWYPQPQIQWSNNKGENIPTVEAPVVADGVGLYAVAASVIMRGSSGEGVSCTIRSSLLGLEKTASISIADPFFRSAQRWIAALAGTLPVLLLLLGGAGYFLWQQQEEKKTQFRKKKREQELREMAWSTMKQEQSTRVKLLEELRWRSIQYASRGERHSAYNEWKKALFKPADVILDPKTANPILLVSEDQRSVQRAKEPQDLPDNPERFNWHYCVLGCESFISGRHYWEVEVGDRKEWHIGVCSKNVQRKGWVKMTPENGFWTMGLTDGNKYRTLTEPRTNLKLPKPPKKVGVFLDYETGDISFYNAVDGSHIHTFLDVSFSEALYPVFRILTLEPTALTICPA
UniProt P78410, residues 30-334: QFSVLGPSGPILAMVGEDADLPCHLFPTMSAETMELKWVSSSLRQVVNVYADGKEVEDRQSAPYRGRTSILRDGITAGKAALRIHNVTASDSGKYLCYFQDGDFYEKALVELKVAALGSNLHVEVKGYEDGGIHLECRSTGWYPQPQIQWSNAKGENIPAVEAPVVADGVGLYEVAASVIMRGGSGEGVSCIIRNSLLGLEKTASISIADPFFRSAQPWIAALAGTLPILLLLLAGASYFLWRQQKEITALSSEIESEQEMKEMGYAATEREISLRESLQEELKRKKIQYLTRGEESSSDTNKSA

[2] = target: human BTN3A2, isoform 1, on cells (human) (UniProt P78410); test: as above

B1: anti-BTN2A1 antibody 259 (antibody, V domains shown)
VH: EVQLLESGGGLVQPGGSLRLSCAASGFTFSSYAMQWVRQAPGKGLEWVSRIGPSGGGTMYADSVKGRFTISRDNSKNTLYLQMNSLRAEDMAVYYCARDLGGLSVLFDYWGQGTLVTVSS
VL: QSELTQPPSASETPGQRVTISCSGSSSNIGSNTVSWFQQLPGSAPRLLIYNDHRRPSGVPDRFSGSKSGTSASLVISGLQSQDEADYYCSAWDDSLNGVVFGGGTKLTVL
With B1 the binding [1] was “no binding” and the binding [2] was “no binding”.

Source: US20220273713A1, “METHOD OF INHIBITING OR ACTIVATING GAMMA DELTA T CELLS” (The University of Melbourne, priority 2019, published 2022)
